# Experimental data published in PubChem BioAssay AID588590 (National Center for Advancing Translational Sciences (NCATS), 2011).
# Sequences of proteins named here, by UniProt entry; tags and fusion partners are left off. A change or cut given only in a name is not applied to a line headed by its entry.
# UniProt Q9UNA4: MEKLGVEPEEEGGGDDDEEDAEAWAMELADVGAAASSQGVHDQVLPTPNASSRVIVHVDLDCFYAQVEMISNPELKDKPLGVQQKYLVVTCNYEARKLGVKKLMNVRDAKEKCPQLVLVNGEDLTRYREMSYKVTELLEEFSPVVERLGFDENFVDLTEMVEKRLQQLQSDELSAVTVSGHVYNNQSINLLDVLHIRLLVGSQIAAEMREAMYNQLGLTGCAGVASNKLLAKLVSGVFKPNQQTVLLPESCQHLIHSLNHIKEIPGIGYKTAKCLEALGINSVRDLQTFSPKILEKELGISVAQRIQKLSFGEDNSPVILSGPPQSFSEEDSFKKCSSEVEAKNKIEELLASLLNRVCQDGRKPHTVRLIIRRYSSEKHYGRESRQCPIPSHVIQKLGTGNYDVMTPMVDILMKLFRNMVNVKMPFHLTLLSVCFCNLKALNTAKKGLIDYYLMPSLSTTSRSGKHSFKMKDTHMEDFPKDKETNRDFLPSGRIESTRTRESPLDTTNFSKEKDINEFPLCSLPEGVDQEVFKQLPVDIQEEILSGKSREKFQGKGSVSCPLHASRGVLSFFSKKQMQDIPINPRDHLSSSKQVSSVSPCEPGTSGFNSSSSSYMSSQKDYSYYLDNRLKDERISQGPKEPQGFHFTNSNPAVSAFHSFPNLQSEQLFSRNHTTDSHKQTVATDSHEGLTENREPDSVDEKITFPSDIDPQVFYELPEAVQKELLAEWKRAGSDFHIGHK
# About 4,000 (1%) of roughly 390,000 compounds were called active. This list was built around the results that the source calls inconclusive (neither active nor inactive); the mix of calls is not that of the screen. Calls follow the shape of the dose curve; as a rule, active = well fitted inhibition curve with a large enough effect; inconclusive = small, poorly fitted or top-dose-only effect, or another doubt; inactive = no such curve, though single readings can be large or run the other way. Potencies beside an inconclusive call are fits to weak or partial responses and may not hold up.
# Molecular target: DNA polymerase iota (Homo sapiens) (UniProt Q9UNA4)
# Assay: qHTS for Inhibitors of Polymerase Iota
# Settings: Pol iota fluorescent replication assay, 10 min; series mostly up to 115 µM
# Procedure, shortened: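 Fluorescent replication assay read twice, at 0 min and 10 min after adding 50 nM (final) substrate. Enzyme (10 nM) and compounds were first incubated 15 min at room temperature; enzyme-free buffer wells were negative controls.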
# Potency is read from the fitted curve at half-maximal effect.
row,Compound,Potency
1,COc1cc(/C=C2/C(=N)N3C(c4ccccc4)=CSC3=NC2=O)ccc1OCC(=O)O,inactive
2,COc1cc(/C=N/n2cnnc2)ccc1OCc1ccc(C)cc1,"inconclusive: 31.6 µM [inhibitor, partial curve, poor fit]"
3,COc1ccc(N(CC(=O)NCCSCc2ccc(C)cc2)S(=O)(=O)c2ccccc2)cc1,"inconclusive: 56.2 µM [inhibitor, partial curve, poor fit]"
4,COc1ccc(CCn2c(=N)c(C(=O)NCc3ccco3)cc3c(=O)n4ccccc4nc32)cc1,"inconclusive: 17.8 µM [inhibitor, partial curve, poor fit]"
5,O=C(CCc1nc2ccccc2c(=O)[nH]1)OCc1ccc(Cl)cc1Cl,inactive
6,CCCS(=O)(=O)c1c(S(=O)(=O)CCC)c2cc(C(C)(C)C)ccn2c1C(=O)c1ccc(C)cc1,inactive
7,COc1ccccc1C=CC(=O)C=Cc1ccccc1OC,"inconclusive: 89.1 µM [inhibitor, partial curve, poor fit]"
8,Cc1ccc2cc(/C=C/C(=O)c3ccco3)c(Cl)nc2c1,"inconclusive: 17.8 µM [inhibitor, partial curve, poor fit]"
9,CCCC[n+]1ccn(C2=C([O-])c3ccccc3C(=O)/C2=N\S(=O)(=O)c2ccccc2)c1,inactive
10,COc1cccc(N2C(=O)CC(N3CCN(C(=O)c4ccco4)CC3)C2=O)c1 (stereo not given),"inconclusive: 25.1 µM [inhibitor, partial curve, poor fit]"
11,Cc1c(Cl)c(=O)n2c(=O)c(Cl)c(C)n12,inactive
12,Cc1ccc(C2=NN(CC(=O)NCc3ccco3)C(=O)CC2)cc1,"inconclusive: 100 µM [inhibitor, partial curve, poor fit]"
13,O=C(CSc1nnnn1-c1ccccc1)NC(=O)NCc1ccco1,active: 20 µM
14,Cc1ccc(-c2c3c(=O)n(C)c(=O)n(C)c3cn2-n2cnnc2)cc1,"inconclusive: 39.8 µM [inhibitor, single point]"
15,Cc1ccc(NC2SC(=O)N(Cc3cccc(C(=O)O)c3)C2=O)cc1 (stereo not given),"inconclusive: 39.8 µM [inhibitor, single point]"
16,COc1ccc(N2CCN(CC(O)COc3ccc4c(c3)CCC4)CC2)cc1 (stereo not given),"inconclusive: 20 µM [inhibitor, single point]"
17,N#Cc1c(C(F)(F)F)cc(-c2cccs2)nc1SCC(=O)Nc1cccc(Br)c1,"inconclusive: 79.4 µM [inhibitor, single point]"
18,Cc1onc(-c2c(F)cccc2Cl)c1C(=O)OCC(=O)c1c[nH]c2ccccc12,"inconclusive: 89.1 µM [inhibitor, partial curve]"
19,CCC(C)(C(=O)NC1CCCCC1)N(Cc1ccco1)C(=O)c1ccccn1 (stereo not given),inactive
20,Cc1cccc(NC(=O)/C(=C\c2ccc([N+](=O)[O-])o2)NC(=O)c2ccc(Cl)cc2)c1,"inconclusive: 44.7 µM [inhibitor, partial curve, poor fit]"

row,Compound,Potency
1,Nc1cc(N)nc(SCc2cc([N+](=O)[O-])cc3c2OCOC3)n1,"inconclusive: 3.16 µM [inhibitor, partial curve, poor fit]"
2,CCOc1ccc(-c2cc(NC(=O)Nc3ccccc3Cl)c(C(=O)OC)s2)cc1,inactive
3,O=C(Nc1nnc(C2=COCCO2)o1)c1ccc(S(=O)(=O)N2CCCC2)cc1,"inconclusive: 56.2 µM [inhibitor, partial curve, poor fit]"
4,Cc1cc(C(=O)COC(=O)CCC(=O)c2ccc3c(c2)OCCO3)c(C)n1Cc1ccco1,"inconclusive: 31.6 µM [inhibitor, partial curve, poor fit]"
5,CCOC(=O)c1c2c([nH]c(=S)c1C#N)CCCC2,"inconclusive: 28.2 µM [inhibitor, partial curve, poor fit]"
6,Cn1c(-c2cccc(Br)c2)cnc1NCc1cccc(F)c1,inactive
7,Cc1ccccc1OCC(=O)N/N=C/c1ccc([N+](=O)[O-])o1,"inconclusive: 20 µM [inhibitor, full curve, poor fit]"
8,O=C(NCc1ccco1)C1CCCN(c2nnc(-n3cccc3)s2)C1 (stereo not given),"inconclusive: 20 µM [inhibitor, full curve]"
9,CC(C)c1ccc(NC(=O)C2CCCN(S(=O)(=O)c3ccc4[nH]c(=O)oc4c3)C2)cc1 (stereo not given),"inconclusive: 89.1 µM [inhibitor, single point]"
10,Cc1ccc(C(c2ccc(C)o2)c2cccc([N+](=O)[O-])c2O)o1,"inconclusive: 20 µM [inhibitor, full curve, poor fit]"
11,COc1ccc(N2Cc3ccccc3C2)cc1Cl,"inconclusive: 10 µM [inhibitor, partial curve, poor fit]"
12,Cc1nc(-c2ccc(F)cc2)sc1CCNC(=O)c1ccccc1C(F)(F)F,"inconclusive: 56.2 µM [inhibitor, partial curve, poor fit]"
13,O=C(O)c1ccccc1Nc1cccc(OCc2ccc3ccccc3n2)c1,"inconclusive: 11.2 µM [inhibitor, full curve, poor fit]"
14,C#CCOCCOCCOCCNc1nc(N2CCN(C(=O)[C@H](CCC(=O)O)n3cc(C(N)Cc4ccc(O)cc4)nn3)CC2)nc(N2CCN(C(=O)[C@H](CCC(=O)O)n3cc(C(N)CC(C)C)nn3)CC2)n1 (stereo not given in full),"inconclusive: 44.7 µM [inhibitor, partial curve]"
15,Cc1cccc(C)c1NC(=O)CN(C)S(=O)(=O)c1ccc(-c2ccc(=O)[nH]n2)s1,"inconclusive: 79.4 µM [inhibitor, partial curve, poor fit]"
16,O=C1CSC(=S)N1c1ccc(O)cc1,"inconclusive: 39.8 µM [inhibitor, single point]"
17,CCCOc1ccc(CNC(=O)CCCN2C(=O)CSc3c2c(C)nn3-c2ccccc2)cc1,"inconclusive: 89.1 µM [inhibitor, single point]"
18,COc1cccc(C(=O)Nc2c(C(N)=O)oc3ccccc23)c1,"inconclusive: 0.631 µM [inhibitor, full curve, poor fit]"
19,CC(OC(=O)c1cc2sccc2n1C)C(=O)NC(C)(C)C (stereo not given),"inconclusive: 3.98 µM [inhibitor, partial curve, poor fit]"
20,CN(C)S(=O)(=O)c1ccc(NC(=O)Cn2nc(-c3ccc4c(c3)OCCO4)ccc2=O)cc1,inactive

row,Compound,Potency
1,Cc1ccsc1C=C1C(=O)c2ccccc2C1=O,"inconclusive: 2.24 µM [inhibitor, full curve, poor fit]"
2,O=C(Nc1nc2ccccc2[nH]1)C1CC(=O)N(c2ccc3c(c2)OCCO3)C1 (stereo not given),"inconclusive: 28.2 µM [inhibitor, partial curve, poor fit]"
3,COc1cc(O)c(C(C)=O)c2c1C=CC(C)(C)O2,"inconclusive: 0.316 µM [inhibitor, full curve, poor fit]"
4,COc1ccc2nc(-c3ccccc3)cc(C(=O)N3CCC3)c2c1,"inconclusive: 1.78 µM [inhibitor, full curve, poor fit]"
5,CCOc1ccccc1/C=N/N1CCN(Cc2ccccc2)CC1,"inconclusive: 31.6 µM [inhibitor, partial curve, poor fit]"
6,COc1ccc(S(=O)(=O)Nc2c(C)n(C)n(-c3ccccc3)c2=O)cc1Br,"inconclusive: 89.1 µM [inhibitor, single point]"
7,COc1ccc(C(=O)Cn2c(=O)n3nc(CCn4nc(C)cc4C)nc3c3cc(OC)c(OC)cc32)cc1,"inconclusive: 89.1 µM [inhibitor, single point]"
8,CCN(CC)S(=O)(=O)c1ccc(N/N=C(\C)c2cccnc2)nc1,"inconclusive: 100 µM [inhibitor, single point]"
9,COc1cc(/C=N/NC(=O)c2ccc(CN3C(=O)c4cccc5cccc3c45)cc2)cc(OC)c1O,"inconclusive: 50.1 µM [inhibitor, partial curve, poor fit]"
10,CCOC(=O)N1CCN(C2=C(NS(=O)(=O)c3ccc(C)cc3)C(=O)c3ccccc3C2=O)CC1,"inconclusive: 10 µM [inhibitor, full curve, poor fit]"
11,Clc1ccc(-c2nnc(CCc3ccccc3)o2)c(Cl)c1,"inconclusive: 56.2 µM [inhibitor, partial curve, poor fit]"
12,COc1ccc(NC(=O)CNc2ccccc2N2CCCC2=O)cc1S(=O)(=O)N1CCOCC1,"inconclusive: 50.1 µM [inhibitor, partial curve, poor fit]"
13,O=C(Nc1nc(-c2ccccc2)ns1)c1ccncc1,"inconclusive: 15.8 µM [inhibitor, partial curve, poor fit]"
14,CC(C)Nc1cc(N2CCN(C3CCCCC3)CC2)c2noc3c2c1C(=O)c1ccccc1-3,inactive
15,CCC(c1nnnn1C1CCCC1)N1CCN(c2ccccc2F)CC1 (stereo not given),inactive
16,COc1ccc(C2C(C(=O)N3CCN(c4ccccc4F)CC3)c3ccccc3C(=O)N2C)cc1 (stereo not given),"inconclusive: 1.58 µM [inhibitor, partial curve, poor fit]"
17,Cc1cc(C(=O)Nc2sc3c(c2C#N)CCCCC3)cs1,"inconclusive: 25.1 µM [inhibitor, single point]"
18,Cc1ccc(NC(=O)N[C@H](C(=O)O)C(C)C)c(C)c1,"inconclusive: 70.8 µM [inhibitor, partial curve, poor fit]"
19,COc1cccc(NC(=O)Cc2ccc(NC(=O)N3CCCCc4ccccc43)cc2)c1,"inconclusive: 100 µM [inhibitor, single point]"
20,O=C(CCSc1ccc(Cl)cc1)NCc1ccncc1,"inconclusive: 39.8 µM [inhibitor, single point]"

# Laid out differently: results already given.
row | Compound | Potency
15 | Cc1ccc(NC2SC(=O)N(Cc3cccc(C(=O)O)c3)C2=O)cc1 (stereo not given) | inconclusive: 39.8 µM [inhibitor, single point]
16 | COc1ccc(N2CCN(CC(O)COc3ccc4c(c3)CCC4)CC2)cc1 (stereo not given) | inconclusive: 20 µM [inhibitor, single point]
17 | N#Cc1c(C(F)(F)F)cc(-c2cccs2)nc1SCC(=O)Nc1cccc(Br)c1 | inconclusive: 79.4 µM [inhibitor, single point]
